# Test results reported in publication PMC6170617.
# Results are given in words; binding and its absence hold for the method and conditions named. Binding seen in cells or lysates may run through a third protein. Some entries that bind do so weakly or less than the wild type.
# T1: osteocalcin (mouse (endogenous in striatum)) (UniProt P86546)
# T1 sequence: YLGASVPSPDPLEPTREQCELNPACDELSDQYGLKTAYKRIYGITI
# Target: T1, osteocalcin (mouse (endogenous in striatum))
# Assay: co-IP; mouse striatum homogenised in NP-40 buffer with protease and phosphatase inhibitors; supernatant incubated 2 h at 4°C with anti-OCN antibody on protein G agarose beads, three NP-40 washes; western blot with anti-Gpr158 and anti-GPRC6a antibodies
row,Binder,binding
1,"GPR158 (receptor, UniProt Q8C419 25-1200) SLDPPGRPDSPRERTPRGKQHGQQLPRASAPDPSIPWSRSTDGTILAQKLAEEVPVDVASYLYTGDFHQLKRANCSGRYELAGLPGKSPSLASSHPSLHGALDTLTHATNFLNMMLQSNKSREQTVQDDLQWYQALVRSLLEGEPSISRAAITFSTESLSTPAPQVFLQATREESRILLQDLSSSAHHLANATLETEWFHGLRRKWRPHLHRRGSNQGPRGLGHSWRRRDGLGGDRSHVKWSPPYLECENGSYKPGWLVTLSAAFYGLQPNLVPEFRGVMKVDISLQKVDIDQCSSDGWFSGTHKCHLNNSECMPIKGLGFVLGAYQCICKAGFYHPRVFSVNNFQRRGPDHHFSGSTKDVSEETHVCLPCREGCPFCADDRPCFVQEDKYLRLAIISFQALCMLLDFVSMLVVYHFRKAKSIRASGLILLETILFGSLLLYFPVVILYFEPSTFRCILLRWARLLGFATVYGTVTLKLHRVLKVFLSRTAQRIPYMTGGRVMRMLAVIVLVVFWFLVGWTSSMCQNLERDILLVGQGQTSDHLTFNMCLIDRWDYMTAVAEFLFLLWGIYLCYAVRTVPSAFHEPRYMAVAVHNELIITAIFHTIRFVLASRLQPDWMLMLYFAHAHLTVTVTIGLLLIPKFSHSSNNPRDDIATEAYEDELDMGRSGSYLNSSINSAWSEHSLDPEDIRDELKKLYAQLEIYKRKKMITNNPHLQKKRCSKKGLGRSIMRRITEIPETVSRQCSKEDKEGTDHSAAKGTGLVRKNPTESSGNTGRPKEESLKNRVFSLKKSHSTYDHVRDQTVESSSLPMESQEEEATENSTLESLSSKKLTQKLKEDSEAESTESVPLVCKSASAHNLSSEKKPGHPRTSMLQKSLSVIASAKEKTLGLAGKTQTLVMEDRAKSQKPKDRETIRKYSNSDNVETIPNSGHMEEPRKPQKSGIMKQQRVSLPTANPDVSSGITQIKDNFDIGEVCPWEVYDLTPGPMPSEPKAQKHVSIAASEVEQNPASFLKEKSYHKSKATEGLYQANHKSIDKTEVCPWEIHSQSLLEDENRLISKTPVLPGRAREENGSQLYTTNMCAGQYEELPHKVVAPKVENENLNQMGDQEKQTSSSVDIIPGSCNSSNNSHQPLTSRAEVCPWEFEPLEQPNAERSVTLPASSALSANKIPGPQK",binds
2,"GPRC6A (receptor, UniProt Q8K4Z6 21-928) CHTPDDFVAITSPGHIMIGGLFAIHEKMLSSDDHPRRPQIQKCAGFEISVFLQTLAMIHSIEMINNSTLLSGVKLGYEIYDTCTEVTAAMAATLRFLSKFNCSRETVVFQCDYSSYMPRVKAVIGAGYSETSIAVSRMLNLQLMPQVSYESTAEILSDKIRFPSFLRTVPSDFYQTKAMAHLIRQSGWNWIGAITTDDDYGRLALNTFAIQAAENNVCIAFKEVLPAFLSDNTIEVRINQTLEKIIAEAQVNVIVVFLRKFHVFNLFTKAIERKISKIWIASDNWSTATKIITIPNVKKLGKVVGFAFRRGNTSSFHSFLQTLHMYPNDNNKPLHEFAMLVSACKYIKDGDLSQCISNYSQATLTYDTTKTIENHLFKRNDFLWHYTEPGLIYSIQLAVFALGHAIRDLCQARDCKKPNAFQPWELLAVLKNVTFTDGRNSFHFDAHGDLNTGYDVVLWKETNGLMTVTKMAEYDLQRDVFITTNQETKHEFRKLKQILSKCSKECSPGQMKKATGSQHSCCYECVSCPENHYSNETDMDHCLLCNNETHWAPVRSTTCFEKEVEYLDWDDSLALLLIALSLLGIAFVLAIGIIFTRNLKTPVVKSSGGLVVCYVMLICHALNFASTGFFIGEPQDFACKTRQTLFGVSFTLCVSCILTKSLKILLAFSFDPKLTMFLKCLYRPVPIVLTCTGIQVVICTLWLVLAAPSVEENISLPRVIILECEEGSALAFGTMLGYITVLAFICFVFAFKGRKLPENYNEAKFLTFGMLIYFIAWITFIPVYTTTFGKYLPAVEIIVILISNYGILCCIFFPKCYIILCKQKTNTKSAFLQMVYNYSAHSVDSLALSHVSLDSTSYDTATTNQSPGNKMTACQNDNHLPAQVLPHTGTAKTIKASKTLRQKRSSSI",binds weakly
